A unit is not stated for every read-out.
Assay: Emission and excitation spectra of purified LHGFR with or without 100 μM L-2-HG
Format: binding
Settings: for Fluorescence intensity, emission spectrum: Suppl. Fig. 8b

O=C(O)CC[C@H](O)C(=O)O [L-2-HG, L-2-Hydroxyglutarate]
Fluorescence intensity, emission spectrum (emission 462 nm): 30537
Fluorescence intensity, emission spectrum (emission 464 nm): 47571
Fluorescence intensity, emission spectrum (emission 466 nm): 70414
Fluorescence intensity, emission spectrum (emission 468 nm): 114105
Fluorescence intensity, emission spectrum (emission 470 nm): 213662
Fluorescence intensity, emission spectrum (emission 472 nm): 306222
Fluorescence intensity, emission spectrum (emission 474 nm): 432757
Fluorescence intensity, emission spectrum (emission 476 nm): 619160
Fluorescence intensity, emission spectrum (emission 478 nm): 766537
Fluorescence intensity, emission spectrum (emission 480 nm): 951628
Fluorescence intensity, emission spectrum (emission 482 nm): 1.14E+06
Fluorescence intensity, emission spectrum (emission 484 nm): 1.29E+06
Fluorescence intensity, emission spectrum (emission 486 nm): 1.48E+06
Fluorescence intensity, emission spectrum (emission 488 nm): 1.66E+06
Fluorescence intensity, emission spectrum (emission 490 nm): 1.80E+06
Fluorescence intensity, emission spectrum (emission 492 nm): 1.95E+06
Fluorescence intensity, emission spectrum (emission 494 nm): 2.01E+06
Fluorescence intensity, emission spectrum (emission 496 nm): 2.00E+06
Fluorescence intensity, emission spectrum (emission 498 nm): 1.97E+06
Fluorescence intensity, emission spectrum (emission 500 nm): 1.92E+06
Fluorescence intensity, emission spectrum (emission 502 nm): 1.85E+06
Fluorescence intensity, emission spectrum (emission 504 nm): 1.80E+06
Fluorescence intensity, emission spectrum (emission 506 nm): 1.75E+06
Fluorescence intensity, emission spectrum (emission 508 nm): 1.74E+06
Fluorescence intensity, emission spectrum (emission 510 nm): 1.75E+06
Fluorescence intensity, emission spectrum (emission 512 nm): 1.80E+06
Fluorescence intensity, emission spectrum (emission 514 nm): 1.94E+06
Fluorescence intensity, emission spectrum (emission 516 nm): 2.22E+06
Fluorescence intensity, emission spectrum (emission 518 nm): 2.55E+06
Fluorescence intensity, emission spectrum (emission 520 nm): 2.90E+06
Fluorescence intensity, emission spectrum (emission 522 nm): 3.13E+06
Fluorescence intensity, emission spectrum (emission 524 nm): 3.36E+06
Fluorescence intensity, emission spectrum (emission 526 nm): 3.46E+06
Fluorescence intensity, emission spectrum (emission 528 nm): 3.50E+06
Fluorescence intensity, emission spectrum (emission 530 nm): 3.47E+06
Fluorescence intensity, emission spectrum (emission 532 nm): 3.39E+06
Fluorescence intensity, emission spectrum (emission 534 nm): 3.28E+06
Fluorescence intensity, emission spectrum (emission 536 nm): 3.09E+06
Fluorescence intensity, emission spectrum (emission 538 nm): 2.82E+06
Fluorescence intensity, emission spectrum (emission 540 nm): 2.57E+06
Fluorescence intensity, emission spectrum (emission 542 nm): 2.23E+06
Fluorescence intensity, emission spectrum (emission 544 nm): 2.05E+06
Fluorescence intensity, emission spectrum (emission 546 nm): 1.84E+06
Fluorescence intensity, emission spectrum (emission 548 nm): 1.69E+06
Fluorescence intensity, emission spectrum (emission 550 nm): 1.56E+06
Fluorescence intensity, emission spectrum (emission 552 nm): 1.46E+06
Fluorescence intensity, emission spectrum (emission 554 nm): 1.36E+06
Fluorescence intensity, emission spectrum (emission 556 nm): 1.29E+06
Fluorescence intensity, emission spectrum (emission 558 nm): 1.21E+06
Fluorescence intensity, emission spectrum (emission 560 nm): 1.14E+06
Fluorescence intensity, emission spectrum (emission 562 nm): 1.06E+06
Fluorescence intensity, emission spectrum (emission 564 nm): 976950
Fluorescence intensity, emission spectrum (emission 566 nm): 905109
Fluorescence intensity, emission spectrum (emission 568 nm): 842340
Fluorescence intensity, emission spectrum (emission 570 nm): 781562
Fluorescence intensity, emission spectrum (emission 572 nm): 730703
Fluorescence intensity, emission spectrum (emission 574 nm): 685106
Fluorescence intensity, emission spectrum (emission 576 nm): 629037
Fluorescence intensity, emission spectrum (emission 578 nm): 595845
Fluorescence intensity, emission spectrum (emission 580 nm): 538248
Fluorescence intensity, excitation spectrum (excitation 380 nm, Suppl. Fig. 8c): 59827
Fluorescence intensity, excitation spectrum (excitation 380 nm, Suppl. Fig. 8d): 67353
Fluorescence intensity, excitation spectrum (excitation 382 nm, Suppl. Fig. 8c): 60507
Fluorescence intensity, excitation spectrum (excitation 382 nm, Suppl. Fig. 8d): 66949
Fluorescence intensity, excitation spectrum (excitation 384 nm, Suppl. Fig. 8c): 64315
Fluorescence intensity, excitation spectrum (excitation 384 nm, Suppl. Fig. 8d): 71059
Fluorescence intensity, excitation spectrum (excitation 386 nm, Suppl. Fig. 8c): 70309
Fluorescence intensity, excitation spectrum (excitation 386 nm, Suppl. Fig. 8d): 79195
Fluorescence intensity, excitation spectrum (excitation 388 nm, Suppl. Fig. 8c): 80482
Fluorescence intensity, excitation spectrum (excitation 388 nm, Suppl. Fig. 8d): 86523
Fluorescence intensity, excitation spectrum (excitation 390 nm, Suppl. Fig. 8c): 85482
Fluorescence intensity, excitation spectrum (excitation 390 nm, Suppl. Fig. 8d): 97353
Fluorescence intensity, excitation spectrum (excitation 392 nm, Suppl. Fig. 8c): 90882
Fluorescence intensity, excitation spectrum (excitation 392 nm, Suppl. Fig. 8d): 97855
Fluorescence intensity, excitation spectrum (excitation 394 nm, Suppl. Fig. 8c): 96719
Fluorescence intensity, excitation spectrum (excitation 394 nm, Suppl. Fig. 8d): 104593
Fluorescence intensity, excitation spectrum (excitation 396 nm, Suppl. Fig. 8c): 99900
Fluorescence intensity, excitation spectrum (excitation 396 nm, Suppl. Fig. 8d): 111934
Fluorescence intensity, excitation spectrum (excitation 398 nm, Suppl. Fig. 8c): 103880
Fluorescence intensity, excitation spectrum (excitation 398 nm, Suppl. Fig. 8d): 116619
Fluorescence intensity, excitation spectrum (excitation 400 nm, Suppl. Fig. 8c): 111369
Fluorescence intensity, excitation spectrum (excitation 400 nm, Suppl. Fig. 8d): 125092
Fluorescence intensity, excitation spectrum (excitation 402 nm, Suppl. Fig. 8c): 121042
Fluorescence intensity, excitation spectrum (excitation 402 nm, Suppl. Fig. 8d): 132687
Fluorescence intensity, excitation spectrum (excitation 404 nm, Suppl. Fig. 8c): 130382
Fluorescence intensity, excitation spectrum (excitation 404 nm, Suppl. Fig. 8d): 143898
Fluorescence intensity, excitation spectrum (excitation 406 nm, Suppl. Fig. 8c): 141769
Fluorescence intensity, excitation spectrum (excitation 406 nm, Suppl. Fig. 8d): 155785
Fluorescence intensity, excitation spectrum (excitation 408 nm, Suppl. Fig. 8c): 161073
Fluorescence intensity, excitation spectrum (excitation 408 nm, Suppl. Fig. 8d): 180367
Fluorescence intensity, excitation spectrum (excitation 410 nm, Suppl. Fig. 8c): 200905
Fluorescence intensity, excitation spectrum (excitation 410 nm, Suppl. Fig. 8d): 221847
Fluorescence intensity, excitation spectrum (excitation 412 nm, Suppl. Fig. 8c): 233102
Fluorescence intensity, excitation spectrum (excitation 412 nm, Suppl. Fig. 8d): 257316
Fluorescence intensity, excitation spectrum (excitation 414 nm, Suppl. Fig. 8c): 260639
Fluorescence intensity, excitation spectrum (excitation 414 nm, Suppl. Fig. 8d): 288407
Fluorescence intensity, excitation spectrum (excitation 416 nm, Suppl. Fig. 8c): 278365
Fluorescence intensity, excitation spectrum (excitation 416 nm, Suppl. Fig. 8d): 304618
Fluorescence intensity, excitation spectrum (excitation 418 nm, Suppl. Fig. 8c): 299529
Fluorescence intensity, excitation spectrum (excitation 418 nm, Suppl. Fig. 8d): 328450
Fluorescence intensity, excitation spectrum (excitation 420 nm, Suppl. Fig. 8c): 311845
Fluorescence intensity, excitation spectrum (excitation 420 nm, Suppl. Fig. 8d): 348322
Fluorescence intensity, excitation spectrum (excitation 422 nm, Suppl. Fig. 8c): 325972
Fluorescence intensity, excitation spectrum (excitation 422 nm, Suppl. Fig. 8d): 363848
Fluorescence intensity, excitation spectrum (excitation 424 nm, Suppl. Fig. 8c): 345413
Fluorescence intensity, excitation spectrum (excitation 424 nm, Suppl. Fig. 8d): 384528
Fluorescence intensity, excitation spectrum (excitation 426 nm, Suppl. Fig. 8c): 362280
Fluorescence intensity, excitation spectrum (excitation 426 nm, Suppl. Fig. 8d): 399375

Source: publication PMC8206213, “An L-2-hydroxyglutarate biosensor based on specific transcriptional regulator LhgR” (Nature Communications, 2021)
